For the test, the target named is T1, Avi-FOXA2 (UniProt Q9Y261).
T1 sequence (chain, biotin on the Avi tag (biotin tagging system with co-expressed E. coli BirA)): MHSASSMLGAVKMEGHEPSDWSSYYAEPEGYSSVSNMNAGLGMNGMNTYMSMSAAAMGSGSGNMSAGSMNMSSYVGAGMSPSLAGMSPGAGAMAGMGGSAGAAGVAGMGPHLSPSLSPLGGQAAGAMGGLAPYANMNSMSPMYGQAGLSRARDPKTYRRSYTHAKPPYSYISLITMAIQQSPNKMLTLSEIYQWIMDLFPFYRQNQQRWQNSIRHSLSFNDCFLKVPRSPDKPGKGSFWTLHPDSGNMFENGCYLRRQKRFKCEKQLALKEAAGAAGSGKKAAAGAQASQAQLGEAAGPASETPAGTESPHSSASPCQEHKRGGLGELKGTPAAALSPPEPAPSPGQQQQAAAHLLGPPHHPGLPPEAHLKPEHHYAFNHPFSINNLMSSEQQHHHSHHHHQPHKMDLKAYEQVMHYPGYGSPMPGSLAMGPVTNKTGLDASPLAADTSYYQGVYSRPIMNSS
As to the kind of experiment: affinity purification with mass spectrometry; MCF-7 cells transfected with pAvi-FOXA2 and pEF1-BirA; lysate (150 mM NaCl, 1% NP-40, 50 mM Tris-HCl pH 7.4) on streptavidin resin overnight, washed four times; SDS-PAGE, trypsin digest, LTQ Orbitrap Velos.

Results are given in words; binding and its absence hold for the method and conditions named. Binding seen in cells or lysates may run through a third protein. A yes stands for co-enrichment or nearness to the bait. Other partners may have been found.

B1: Isoform 2 of Methylcrotonoyl-CoA carboxylase beta chain, mitochondrial (protein, UniProt Q9HCC0-2 23-525)
chain: YHGDSVASLGTQPDLGSALYQENYKQMKALVNQLHERVEHIKLGGGEKARALHISRGKLLPRERIDNLIDPGSPFLELSQFAGYQLYDNEEVPGGGIITGIGRVSGVECMIIANDATVKGGAYYPVTVKKQLRAQEIAMQNRLPCIYLVDSGGAYLPRQADVFPDRDHFGRTFYNQAIMSSKNIAQVKAATGEEVSAEDLGGADLHCRKSGVSDHWALDDHHALHLTRKVVRNLNYQKKLDVTIEPSEEPLFPADELYGIVGANLKRSFDVREVIARIVDGSRFTEFKAFYGDTLVTGFARIFGYPVGIVGNNGVLFSESAKKGTHFVQLCCQRNIPLLFLQNITGFMVGREYEAEGIAKDGAKMVAAVACAQVPKITLIIGGSYGAGNYGMCGRAYSPRFLYIWPNARISVMGGEQAANVLATITKDQRAREGKQFSSADEAALKEPIIKKFEEEGNPYYSSARVWDDGIIDPADTRLVLGLSFSAALNAPIEKTDFGIFRM
For the molecule B1, the binding result is given as “binds”.

B2: Matrin-3 (protein, UniProt P43243 1-847)
chain: MSKSFQQSSLSRDSQGHGRDLSAAGIGLLAAATQSLSMPASLGRMNQGTARLASLMNLGMSSSLNQQGAHSALSSASTSSHNLQSIFNIGSRGPLPLSSQHRGDADQASNILASFGLSARDLDELSRYPEDKITPENLPQILLQLKRRRTEEGPTLSYGRDGRSATREPPYRVPRDDWEEKRHFRRDSFDDRGPSLNPVLDYDHGSRSQESGYYDRMDYEDDRLRDGERCRDDSFFGETSHNYHKFDSEYERMGRGPGPLQERSLFEKKRGAPPSSNIEDFHGLLPKGYPHLCSICDLPVHSNKEWSQHINGASHSRRCQLLLEIYPEWNPDNDTGHTMGDPFMLQQSTNPAPGILGPPPPSFHLGGPAVGPRGNLGAGNGNLQGPRHMQKGRVETSRVVHIMDFQRGKNLRYQLLQLVEPFGVISNHLILNKINEAFIEMATTEDAQAAVDYYTTTPALVFGKPVRVHLSQKYKRIKKPEGKPDQKFDQKQELGRVIHLSNLPHSGYSDSAVLKLAEPYGKIKNYILMRMKSQAFIEMETREDAMAMVDHCLKKALWFQGRCVKVDLSEKYKKLVLRIPNRGIDLLKKDKSRKRSYSPDGKESPSDKKSKTDGSQKTESSTEGKEQEEKSGEDGEKDTKDDQTEQEPNMLLESEDELLVDEEEAAALLESGSSVGDETDLANLGDVASDGKKEPSDKAVKKDGSASAAAKKKLKKVDKIEELDQENEAALENGIKNEENTEPGAESSENADDPNKDTSENADGQSDENKDDYTIPDEYRIGPYQPNVPVGIDYVIPKTGFYCKLCSLFYTNEEVAKNTHCSSLPHYQKLKKFLNKLAEERRQKKET
For B2, the binding result was “binds”.

B3: Isoform 3 of PERQ amino acid-rich with GYF domain-containing protein 2 (protein, UniProt Q6Y7W6-4 1-1286)
chain: MAAETQTLNFGPEWLRALSSGGSITSPPLSPALPKYKLADYRYGREEMLALFLKDNKIPSDLLDKEFLPILQEEPLPPLALVPFTEEEQRNFSMSVNSAAVLRLTGRGGGGTVVGAPRGRSSSRGRGRGRGECGFYQRSFDEVEGVFGRGGGREMHRSQSWEERGDRRFEKPGRKDVGRPNFEEGGPTSVGRKHEFIRSESENWRIFREEQNGEDEDGGWRLAGSRRDGERWRPHSPGWREHMERRRRFEFDFRDRDDERGYRRVRSGSGSIDDDRDSLPEWCLEDAEEEMGTFDSSGAFLSLKKVQKEPIPEEQEMDFRPVDEGEECSDSEGSHNEEAKEPDKTNKKEGEKTDRVGVEASEETPQTSSSSARPGTPSDHQSQEASQFERKDEPKTEQTEKAEEETRMENSLPAKVPSRGDEMVADVQQPLSQIPSDTASPLLILPPPVPNPSPTLRPVETPVVGAPGMGSVSTEPDDEEGLKHLEQQAEKMVAYLQDSALDDERLASKLQEHRAKGVSIPLMHEAMQKWYYKDPQGEIQGPFNNQEMAEWFQAGYFTMSLLVKRACDESFQPLGDIMKMWGRVPFSPGPAPPPHMGELDQERLTRQQELTALYQMQHLQYQQFLIQQQYAQVLAQQQKAALSSQQQQQLALLLQQFQTLKMRISDQNIIPSVTRSVSVPDTGSIWELQPTASQPTVWEGGSVWDLPLDTTTPGPALEQLQQLEKAKAAKLEQERREAEMRAKREEEERKRQEELRRQQEEILRRQQEEERKRREEEELARRKQEEALRRQREQEIALRRQREEEERQQQEEALRRLEERRREEEERRKQEELLRKQEEEAAKWAREEEEAQRRLEENRLRMEEEAARLRHEEEERKRKELEVQRQKELMRQRQQQQEALRRLQQQQQQQQLAQMKLPSSSTWGQQSNTTACQSQATLSLAEIQKLEEERERQLREEQRRQQRELMKALQQQQQQQQQKLSGWGNVSKPSGTTKSLLEIQQEEARQMQKQQQQQQQHQQPNRARNNTHSNLHTSIGNSVWGSINTGPPNQWASDLVSSIWSNADTKNSNMGFWDDAVKEVGPRNSTNKNKNNASLSKSVGVSNRQNKKVEEEEKLLKLFQGVNKAQDGFTQWCEQMLHALNTANNLDVPTFVSFLKEVESPYEVHDYIRAYLGDTSEAKEFAKQFLERRAKQKANQQRQQQQQPPQQPPQQPQQQDSVWGMNHSTLHSVFQTNQSNNQQSNFEAVQSGKKKKKQKMVRADPSLLGFSVNASSERLNMGEIETLDDY
As for B3, the binding entry is “binds”.
